These results are taken from article PMC7862700.

By UniProt entry, the sequences of proteins in these tests, tags left out. Where a name states a change or a piece, a line headed by the entry shows the natural chain unless it says otherwise.
UniProt O43186: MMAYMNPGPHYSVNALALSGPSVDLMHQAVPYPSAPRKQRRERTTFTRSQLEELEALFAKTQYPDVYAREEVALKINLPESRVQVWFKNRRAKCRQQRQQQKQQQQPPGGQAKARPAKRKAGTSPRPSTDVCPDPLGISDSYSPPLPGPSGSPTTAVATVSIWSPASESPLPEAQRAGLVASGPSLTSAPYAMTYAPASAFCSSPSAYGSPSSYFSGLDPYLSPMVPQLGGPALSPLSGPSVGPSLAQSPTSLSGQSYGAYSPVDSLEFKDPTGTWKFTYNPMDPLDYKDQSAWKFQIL

This is a selection; strong and weak results do not stand in their true shares. At the low end of the ranking the order means little.

The target in one assay is T1, FEV (UniProt Q99581).
T1 sequence: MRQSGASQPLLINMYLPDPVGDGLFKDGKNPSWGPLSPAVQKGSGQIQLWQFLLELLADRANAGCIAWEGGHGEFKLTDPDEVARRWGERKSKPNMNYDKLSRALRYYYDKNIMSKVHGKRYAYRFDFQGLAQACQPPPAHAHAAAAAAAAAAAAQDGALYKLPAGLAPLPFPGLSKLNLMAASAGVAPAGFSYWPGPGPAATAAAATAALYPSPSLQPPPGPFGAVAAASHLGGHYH
Description: DAPPL (digital affinity profiling via proximity ligation, sequencing). As to conditions: 10 mM Tris-HCl pH 7.5, 50 mM NaCl, 1 mM DTT, 4% glycerol, room temperature, 30 min; GST-TFs on glutathione beads, 16-mer random dsDNA library, 0.1% …; high values mean tight binding; double strand, one strand shown; scale: fold enrichment (6-mer frequency, TF over GST control).
Sequence CGCGAG registered a binding signal of 0.469.
Same read-out and setting: with AGCCAG the figure was 0.472; with GGCGGC, 0.542.
In turn, GGTCAA showed a binding signal of 0.847.
Same read-out and setting: as for GCCCAG, the figure is 0.757; as for AGACGA, 0.715; as for GCCAAA, 0.897.
GCCGAG returned a binding signal of 0.633.
ACGGGA had a binding signal of 0.536.
Sequence GATCGG registered a binding signal of 0.484.
Still for that read-out and setting: with GTCATG the figure was 0.738.
The same measure, in the same setting: as for CGGGCC, the figure is 0.743; as for CCGAGT, 0.914.
With GCGTCG, the binding signal came to 0.732.
As to AGAGAC, the binding signal was found to be 0.544.
In turn, GAGTTC yielded a binding signal of 0.689.
Regarding GGCCAA, the binding signal was found to be 0.836.
In the case of GCATGC, the binding signal came to 0.851.
GACAAC yielded a binding signal of 0.95.
Still for that read-out and setting: as for TGCGGG, the figure is 0.754.
The same measure, in the same setting: as for CCGTGC, the figure is 0.578; as for CAGAGC, 0.795; as for GGGCTG, 0.938.
AGGACG registered a binding signal of 0.515.
As for AAGACC, the binding signal came to 0.853.
On to AGGGGG, for which the binding signal was found to be 0.613.
GTTGGG: the binding signal was 0.684.
On the same count and under the same terms, as for CATGGA, the figure is 0.841; as for GGATAG, 0.696.
As to TGGGGC, the binding signal was determined as 0.831.
TGAGGA displayed a binding signal of 0.625.
Still for that read-out and setting: with ACAACG the figure was 0.942; with GTGATA, 0.675.
The same measure, in the same setting: with GTAACG the figure was 0.926; with CAGCGT, 0.805; with CGTGAT, 0.462.
In turn, GAGCGT registered a binding signal of 0.324.
Consider CACGAG, for which the binding signal amounted to 0.799.
Sequence GCTGGG registered a binding signal of 0.761.

Another assay deals with CRX (UniProt O43186). Described as above. The settings on record: 10 mM Tris-HCl pH 7.5, 50 mM NaCl, 1 mM DTT, 4% glycerol, room temperature, 30 min; GST-TFs on glutathione beads, 16-mer random dsDNA library, 0.1% …; high values mean tight binding; double strand, one strand shown; scale: fold enrichment (6-mer frequency, TF over GST control).
CGCGAG showed a binding signal of 0.434.
AGCCAG registered a binding signal of 0.472.
Still for that read-out and setting: as for GGCGGC, the figure is 0.437; as for GGTCAA, 0.629.
On to GCCCAG, for which the binding signal turned out to be 0.629.
The same measure, in the same setting: with AGACGA the figure was 0.73; with GCCAAA, 0.869.
Still for that read-out and setting: with GCCGAG the figure was 0.558.
Sequence ACGGGA returned a binding signal of 0.459.
With GATCGG, the binding signal amounted to 0.51.
The sequence GTCATG came in with a binding signal of 0.593.
CGGGCC came in with a binding signal of 0.57.
The same measure, in the same setting: as for CCGAGT, the figure is 0.822; as for GCGTCG, 0.612; as for AGAGAC, 0.471.
The same measure, in the same setting: with GAGTTC the figure was 0.513.
The sequence GGCCAA had a binding signal of 0.653.
In the case of GCATGC, the binding signal turned out to be 0.686.
Same read-out and setting: with GACAAC the figure was 0.68.
The same measure, in the same setting: as for TGCGGG, the figure is 0.676.
With CCGTGC, the binding signal stood at 0.448.
The same measure, in the same setting: with CAGAGC the figure was 0.734; with GGGCTG, 0.708; with AGGACG, 0.353.
AAGACC yielded a binding signal of 0.927.
With AGGGGG, the binding signal turned out to be 0.543.
In the case of GTTGGG, the binding signal was determined as 0.564.
Regarding CATGGA, the binding signal came out at 0.861.
On the same count and under the same terms, as for GGATAG, the figure is 0.646.
TGGGGC came in with a binding signal of 0.667.
For the sequence TGAGGA, the binding signal is 0.584.
In the case of ACAACG, the binding signal worked out at 0.731.
For GTGATA, the binding signal was found to be 0.706.
Take GTAACG: the binding signal worked out at 0.719.
In turn, CAGCGT displayed a binding signal of 0.69.
CGTGAT: the binding signal is 0.486.
The sequence GAGCGT returned a binding signal of 0.317.
With CACGAG, the binding signal turned out to be 0.762.
On to GCTGGG, for which the binding signal was 0.67.

The target of another assay is T2, ELF5 (UniProt Q9UKW6-2).
T2 sequence: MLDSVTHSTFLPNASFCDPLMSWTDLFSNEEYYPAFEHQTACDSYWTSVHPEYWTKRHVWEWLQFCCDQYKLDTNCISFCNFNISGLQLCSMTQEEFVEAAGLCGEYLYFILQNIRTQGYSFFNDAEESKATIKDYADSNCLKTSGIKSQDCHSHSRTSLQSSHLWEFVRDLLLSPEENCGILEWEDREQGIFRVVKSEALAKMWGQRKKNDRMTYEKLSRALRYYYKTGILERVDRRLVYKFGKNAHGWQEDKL
The assay is described as above. As to conditions: 10 mM Tris-HCl pH 7.5, 50 mM NaCl, 1 mM DTT, 4% glycerol, room temperature, 30 min; GST-TFs on glutathione beads, 16-mer random dsDNA library, 0.1% …; high values mean tight binding; double strand, one strand shown; scale: fold enrichment (6-mer frequency, TF over GST control).
On to CGCGAG, for which the binding signal worked out at 0.496.
The same measure, in the same setting: with AGCCAG the figure was 0.439; with GGCGGC, 0.494.
The same measure, in the same setting: with GGTCAA the figure was 0.862; with GCCCAG, 0.665; with AGACGA, 0.673.
GCCAAA had a binding signal of 0.887.
Sequence GCCGAG came in with a binding signal of 0.572.
Sequence ACGGGA displayed a binding signal of 0.616.
Consider GATCGG, for which the binding signal stood at 0.435.
GTCATG had a binding signal of 0.798.
Consider CGGGCC, for which the binding signal was determined as 0.692.
CCGAGT returned a binding signal of 0.929.
As to GCGTCG, the binding signal came to 0.819.
The same measure, in the same setting: as for AGAGAC, the figure is 0.47.
With GAGTTC, the binding signal turned out to be 0.72.
As for GGCCAA, the binding signal stood at 0.772.
Turning to GCATGC, the binding signal is 0.814.
Turning to GACAAC, the binding signal amounted to 0.926.
Consider TGCGGG, for which the binding signal was 0.697.
In turn, CCGTGC showed a binding signal of 0.607.
CAGAGC displayed a binding signal of 0.762.
The sequence GGGCTG had a binding signal of 0.861.
On the same count and under the same terms, with AGGACG the figure was 0.51; with AAGACC, 0.905.
Consider AGGGGG, for which the binding signal was determined as 0.581.
With GTTGGG, the binding signal turned out to be 0.719.
For the sequence CATGGA, the binding signal came to 0.852.
GGATAG yielded a binding signal of 0.731.
In turn, TGGGGC had a binding signal of 0.757.
The sequence TGAGGA came in with a binding signal of 0.88.
As for ACAACG, the binding signal was found to be 0.889.
On to GTGATA, for which the binding signal is 0.645.
Same read-out and setting: with GTAACG the figure was 0.946; with CAGCGT, 0.79; with CGTGAT, 0.473.
Still for that read-out and setting: with GAGCGT the figure was 0.349.
The sequence CACGAG registered a binding signal of 0.748.
For GCTGGG, the binding signal stood at 0.764.
